{"source": "patent US20070260203A1", "about": "“Vasoactive agent intraocular implant” (ALLERGAN, INC., priority 2006, published 2007)", "origin": "cited, not measured here", "conditions": "phosphodiesterase-5 inhibitor; Rajagopalan et al. 2003", "note": "At least one structure is not confirmed: it was looked up by name or label, or the drawing left a doubt.", "data": [{"smiles": "CCCc1nc(C)c2c(=O)[nH]c(-c3cc(S(=O)(=O)N4CCN(CC)CC4)ccc3OCC)nn12", "note": "[Vardenafil]", "values": [{"measurement": "effective concentration", "result": 10, "unit": "µg/L"}]}]}
